Experimental data from paper PMC3936751.
No constants are given. Whether binding was seen depends on the method and setting. Tags and fused reporters may be left off the sequences shown.

Experiments:
Details in all cases: remark: other sources report otherwise
[1] = target: T1, human Cdc45 protein, C-terminally His6-tagged (hCdc45-His6) (human), O75419; assay: dynamic light scattering; purified protein in solution; conditions not given; both purified
T1 chain: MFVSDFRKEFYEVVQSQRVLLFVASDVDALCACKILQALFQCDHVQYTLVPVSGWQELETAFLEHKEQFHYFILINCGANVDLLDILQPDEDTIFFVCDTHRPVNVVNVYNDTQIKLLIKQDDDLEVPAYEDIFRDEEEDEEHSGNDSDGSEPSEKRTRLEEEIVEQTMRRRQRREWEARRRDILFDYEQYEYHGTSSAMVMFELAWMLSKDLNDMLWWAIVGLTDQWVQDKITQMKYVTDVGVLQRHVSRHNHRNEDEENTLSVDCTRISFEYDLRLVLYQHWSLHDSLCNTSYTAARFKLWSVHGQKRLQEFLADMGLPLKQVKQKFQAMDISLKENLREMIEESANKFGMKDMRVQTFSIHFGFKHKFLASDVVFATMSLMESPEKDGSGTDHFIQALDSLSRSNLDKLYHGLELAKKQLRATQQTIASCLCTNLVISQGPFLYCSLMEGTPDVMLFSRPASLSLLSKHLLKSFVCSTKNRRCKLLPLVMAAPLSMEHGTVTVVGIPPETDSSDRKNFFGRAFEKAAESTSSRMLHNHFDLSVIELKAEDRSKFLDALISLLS

[2] = target: T1, human Cdc45 protein, C-terminally …; assay: small-angle X-ray scattering (SAXS); protein in solution, 1.3 to 5.4 mg/ml, 20 mM HEPES-KOH pH 7.5, 150 mM KCl, 1 mM DTT, 1 mM MgCl2, 5% glycerol; mass from forward scattering against bovine serum albumin, Vc and Porod volume; both purified
[3] = target: T1, human Cdc45 protein, C-terminally …; assay: atomic force microscopy (volume analysis); protein diluted to 10 nM in 20 mM HEPES pH 7.5, 25 mM sodium acetate, 10 mM magnesium acetate, deposited on mica and dried; volumes translated into molecular weight by a linear calibration; both purified
[4] = target: T1, human Cdc45 protein, C-terminally …; assay: SEC; analytical gel filtration (Supplementary Figure S1); conditions not told for this run; both purified

binding [1]: no binding | binding [2]: no binding (tested: 1.3 to 5.4 mg/ml) | binding [3]: no binding (tested: 10 nM) | binding [4]: no binding
B1: human Cdc45 protein, C-terminally His6-tagged (hCdc45-His6), O75419 1-566 (protein)
chain: T1 chain
